Results deposited as PubChem BioAssay AID1224830 (NIAID, 2016)
In all, the deposit lists about 18,000 reagents; this is a random part of them. In the full data, about 2,900 (16%) got an active call. 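Calls are made per well; low scores hint the gene aids the LPS response, high scores that it dampens it.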 Unmarked entries are inactive. Repeated entries: four replicate wells of each siRNA pool. Reagent sequences are not shown.

Aim: 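Host factors that control LPS-induced TNF expression in human macrophages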 (primary screen)
Cells: human THP-1 monocytic leukaemia cells, TNF dual-luciferase reporter clone, PMA-differentiated to macrophage-like cells
Reagent: siRNA pool against human genes, 50 nM
Timing: LPS for 4 h, given about 3 days after siRNA transfection
Challenge: bacterial LPS (TLR4 ligand), 10 ng/ml
Measurement: 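TNF firefly reporter luminescence divided by renilla, normalised to the plate median, then turned into a robust z-score for each replicate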
Reading the numbers: TNF reporter robust z-score: higher = stronger TNF reporter response to LPS
Active means: 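a well is active when its z-score exceeds 2.8 or falls below -1.5; control wells carry no call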

gene symbol	TNF reporter robust z-score
RAB34 (GeneID 83871)	1.13
RAB34 (GeneID 83871)	1.02
RAB34 (GeneID 83871)	0.85
RAB34 (GeneID 83871)	1.51
PAGE4 (GeneID 9506)	-0.65
PAGE4 (GeneID 9506)	-0.81
PAGE4 (GeneID 9506)	-0.48
PAGE4 (GeneID 9506)	-0.25
LARP6 (GeneID 55323)	-0.02
LARP6 (GeneID 55323)	-0.45
LARP6 (GeneID 55323)	-0.08
LARP6 (GeneID 55323)	-0.92
ERMARD (GeneID 55780)	1.63
ERMARD (GeneID 55780)	1.09
ERMARD (GeneID 55780)	0.66
ERMARD (GeneID 55780)	0.62
PALB2 (GeneID 79728)	-1.08
PALB2 (GeneID 79728)	-0.92
PALB2 (GeneID 79728)	-1.4
PALB2 (GeneID 79728)	-1.04
PLPPR3 (GeneID 79948)	-1.12
PLPPR3 (GeneID 79948)	1.71
PLPPR3 (GeneID 79948)	1.04
PLPPR3 (GeneID 79948)	0.75
ANAPC11 (GeneID 51529)	0.88
ANAPC11 (GeneID 51529)	-0.88
ANAPC11 (GeneID 51529)	-0.68
ANAPC11 (GeneID 51529)	0.8
G6PC1 (GeneID 2538)	-1.13
G6PC1 (GeneID 2538)	-0.92
G6PC1 (GeneID 2538)	-1.74 (active)
G6PC1 (GeneID 2538)	-0.11
PPP3R1 (GeneID 5534)	0.42
PPP3R1 (GeneID 5534)	3.73 (active)
PPP3R1 (GeneID 5534)	1.74
PPP3R1 (GeneID 5534)	-1.28
CA11 (GeneID 770)	2.19
CA11 (GeneID 770)	0.79
CA11 (GeneID 770)	-0.38
CA11 (GeneID 770)	0.52
LPO (GeneID 4025)	0.9
LPO (GeneID 4025)	0.52
LPO (GeneID 4025)	0.83
LPO (GeneID 4025)	-0.18
KCTD3 (GeneID 51133)	0.93
KCTD3 (GeneID 51133)	2.01
KCTD3 (GeneID 51133)	1.65
KCTD3 (GeneID 51133)	1.25
CDS1 (GeneID 1040)	0.4
CDS1 (GeneID 1040)	1.1
CDS1 (GeneID 1040)	0.34
CDS1 (GeneID 1040)	0.81
GLCE (GeneID 26035)	-0.19
GLCE (GeneID 26035)	1.65
GLCE (GeneID 26035)	-0.41
GLCE (GeneID 26035)	1.3
MINDY3 (GeneID 80013)	-0.48
MINDY3 (GeneID 80013)	0.75
MINDY3 (GeneID 80013)	0.14
MINDY3 (GeneID 80013)	0.99
NME3 (GeneID 4832)	-0.66
NME3 (GeneID 4832)	0.86
NME3 (GeneID 4832)	-0.23
NME3 (GeneID 4832)	-0.06
ZNF461 (GeneID 92283)	-0.14
ZNF461 (GeneID 92283)	-0.32
ZNF461 (GeneID 92283)	1.35
ZNF461 (GeneID 92283)	1.73

In a second layout: 8 of the entries above.
{"gene symbol": "NME3 (GeneID 4832)", "TNF reporter robust z-score": -0.66}
{"gene symbol": "NME3 (GeneID 4832)", "TNF reporter robust z-score": 0.86}
{"gene symbol": "NME3 (GeneID 4832)", "TNF reporter robust z-score": -0.23}
{"gene symbol": "NME3 (GeneID 4832)", "TNF reporter robust z-score": -0.06}
{"gene symbol": "ZNF461 (GeneID 92283)", "TNF reporter robust z-score": -0.14}
{"gene symbol": "ZNF461 (GeneID 92283)", "TNF reporter robust z-score": -0.32}
{"gene symbol": "ZNF461 (GeneID 92283)", "TNF reporter robust z-score": 1.35}
{"gene symbol": "ZNF461 (GeneID 92283)", "TNF reporter robust z-score": 1.73}

More reagents follow:
gene symbol	TNF reporter robust z-score
LETMD1 (GeneID 25875)	0.2
LETMD1 (GeneID 25875)	1.34
LETMD1 (GeneID 25875)	1.7
LETMD1 (GeneID 25875)	0.48
TNIP2 (GeneID 79155)	0.5
TNIP2 (GeneID 79155)	-0.53
TNIP2 (GeneID 79155)	-0.8
TNIP2 (GeneID 79155)	0.8
CZIB (GeneID 54987)	0.24
CZIB (GeneID 54987)	1.91
CZIB (GeneID 54987)	0.3
CZIB (GeneID 54987)	1.51
ASAP1 (GeneID 50807)	-1.36
ASAP1 (GeneID 50807)	-0.81
ASAP1 (GeneID 50807)	-0.92
GATAD2A (GeneID 54815)	3.85 (active)
GATAD2A (GeneID 54815)	2.17
GATAD2A (GeneID 54815)	3.34 (active)
GATAD2A (GeneID 54815)	1.95
PSG8 (GeneID 440533)	-0.84
PSG8 (GeneID 440533)	-0.23
PSG8 (GeneID 440533)	-0.33
PSG8 (GeneID 440533)	-0.52
ZFAND4 (GeneID 93550)	-0.03
ZFAND4 (GeneID 93550)	-0.16
ZFAND4 (GeneID 93550)	-0.94
ZFAND4 (GeneID 93550)	0.77
IKBKE (GeneID 9641)	2
IKBKE (GeneID 9641)	0.31
IKBKE (GeneID 9641)	-0.65
IKBKE (GeneID 9641)	1.68
ADGRG3 (GeneID 222487)	-0.47
ADGRG3 (GeneID 222487)	-0.66
ADGRG3 (GeneID 222487)	-0.72
FOLH1B (GeneID 219595)	-0.96
FOLH1B (GeneID 219595)	0.89
FOLH1B (GeneID 219595)	0.28
FOLH1B (GeneID 219595)	0.39
NUP62 (GeneID 23636)	0.89
NUP62 (GeneID 23636)	0.27
NUP62 (GeneID 23636)	1.41
NUP62 (GeneID 23636)	-0.55
